Series [1] can be described thus: Bidirectional transport study in MDCKI cells. Format: in vitro ADME, canine. Conditions: dog, MDCK, avg ± SD, n = 3; for Papp A→B at 25 µM / Papp B→A at 25 µM: 25 µM ciprofloxacin.
Series [2] can be described thus: Bidirectional transport study in LLC-PK1 cells. The conditions noted are these: pig. Format: in vitro ADME.
Another series addresses MRP1 (Homo sapiens, UniProt P33527). The series is described as follows: Bidirectional transport study in L-MRP1 cells. The conditions noted are these: LLC-PK1. Format: in vitro ADME.
The target of series [3] is T1, P-gp (MDR1) (Homo sapiens, UniProt P08183). The series is described as follows: Bidirectional transport study in L-MDR1 cells. In kind it is in vitro ADME. Conditions: LLC-PK1.
A short description of series [4]: in vitro. Conditions: not told.
Series [5] in a line: in vitro. The conditions noted are these: dog, MDCK.
A further series concerns the target MRP2 (Homo sapiens, UniProt Q92887). Put plainly: in vitro. The conditions noted are these: dog.
The target of series [6] is T1, P-gp (MDR1). The series is described as follows: in vitro. Conditions: dog, MDCK-MDR1.
The conditions of series [7]: cited from earlier work.
For the next series, the target named is P-gp (L-MDR1 cells) (Homo sapiens, UniProt P08183). Conditions: rhodamine-123, a known P-gp substrate; cited from earlier work.
In a further series the test system is OAT3. The conditions noted are these: cited from earlier work.

Chains of the proteins cited; added tags and fusions are not shown. Lines headed by an entry give the natural chain unless they say otherwise; changes in a name come on top.
UniProt P33527: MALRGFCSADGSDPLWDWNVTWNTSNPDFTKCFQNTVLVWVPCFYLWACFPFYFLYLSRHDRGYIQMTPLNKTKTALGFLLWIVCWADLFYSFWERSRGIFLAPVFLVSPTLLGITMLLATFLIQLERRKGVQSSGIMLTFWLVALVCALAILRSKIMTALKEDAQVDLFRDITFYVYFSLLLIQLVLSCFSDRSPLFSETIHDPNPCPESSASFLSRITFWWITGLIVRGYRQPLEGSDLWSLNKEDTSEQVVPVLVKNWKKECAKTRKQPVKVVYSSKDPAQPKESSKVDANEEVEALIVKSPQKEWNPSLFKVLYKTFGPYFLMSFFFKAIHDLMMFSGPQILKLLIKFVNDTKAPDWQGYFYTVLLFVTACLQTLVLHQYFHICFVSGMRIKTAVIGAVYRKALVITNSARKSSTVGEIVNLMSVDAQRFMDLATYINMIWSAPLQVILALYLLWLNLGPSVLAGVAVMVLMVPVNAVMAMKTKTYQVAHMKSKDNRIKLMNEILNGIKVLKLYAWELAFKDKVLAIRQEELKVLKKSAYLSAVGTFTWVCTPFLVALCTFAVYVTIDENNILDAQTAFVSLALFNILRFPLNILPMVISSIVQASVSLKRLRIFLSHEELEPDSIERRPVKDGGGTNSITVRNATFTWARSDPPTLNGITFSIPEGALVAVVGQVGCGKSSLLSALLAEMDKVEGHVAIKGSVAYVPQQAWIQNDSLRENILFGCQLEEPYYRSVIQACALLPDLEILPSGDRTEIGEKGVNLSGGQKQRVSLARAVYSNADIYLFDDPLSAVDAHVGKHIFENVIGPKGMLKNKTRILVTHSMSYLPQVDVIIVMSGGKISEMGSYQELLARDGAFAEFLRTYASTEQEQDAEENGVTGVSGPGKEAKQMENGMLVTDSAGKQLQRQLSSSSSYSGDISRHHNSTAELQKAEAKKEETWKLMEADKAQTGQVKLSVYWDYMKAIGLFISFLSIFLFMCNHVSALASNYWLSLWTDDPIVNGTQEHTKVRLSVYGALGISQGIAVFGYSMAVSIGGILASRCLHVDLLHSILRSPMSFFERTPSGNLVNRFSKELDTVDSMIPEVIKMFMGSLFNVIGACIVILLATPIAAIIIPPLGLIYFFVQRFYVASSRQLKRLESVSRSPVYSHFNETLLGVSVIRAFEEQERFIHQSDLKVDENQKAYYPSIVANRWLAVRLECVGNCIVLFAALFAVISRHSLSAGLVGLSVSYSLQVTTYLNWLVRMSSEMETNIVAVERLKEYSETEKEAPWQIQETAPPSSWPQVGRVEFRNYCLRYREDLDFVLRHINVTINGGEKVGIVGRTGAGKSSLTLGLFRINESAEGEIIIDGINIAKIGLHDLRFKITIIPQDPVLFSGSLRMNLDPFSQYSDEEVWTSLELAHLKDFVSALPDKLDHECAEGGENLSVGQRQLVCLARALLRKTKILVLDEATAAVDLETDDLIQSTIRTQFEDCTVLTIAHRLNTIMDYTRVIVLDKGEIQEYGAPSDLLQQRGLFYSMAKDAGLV
UniProt P08183, whole entry: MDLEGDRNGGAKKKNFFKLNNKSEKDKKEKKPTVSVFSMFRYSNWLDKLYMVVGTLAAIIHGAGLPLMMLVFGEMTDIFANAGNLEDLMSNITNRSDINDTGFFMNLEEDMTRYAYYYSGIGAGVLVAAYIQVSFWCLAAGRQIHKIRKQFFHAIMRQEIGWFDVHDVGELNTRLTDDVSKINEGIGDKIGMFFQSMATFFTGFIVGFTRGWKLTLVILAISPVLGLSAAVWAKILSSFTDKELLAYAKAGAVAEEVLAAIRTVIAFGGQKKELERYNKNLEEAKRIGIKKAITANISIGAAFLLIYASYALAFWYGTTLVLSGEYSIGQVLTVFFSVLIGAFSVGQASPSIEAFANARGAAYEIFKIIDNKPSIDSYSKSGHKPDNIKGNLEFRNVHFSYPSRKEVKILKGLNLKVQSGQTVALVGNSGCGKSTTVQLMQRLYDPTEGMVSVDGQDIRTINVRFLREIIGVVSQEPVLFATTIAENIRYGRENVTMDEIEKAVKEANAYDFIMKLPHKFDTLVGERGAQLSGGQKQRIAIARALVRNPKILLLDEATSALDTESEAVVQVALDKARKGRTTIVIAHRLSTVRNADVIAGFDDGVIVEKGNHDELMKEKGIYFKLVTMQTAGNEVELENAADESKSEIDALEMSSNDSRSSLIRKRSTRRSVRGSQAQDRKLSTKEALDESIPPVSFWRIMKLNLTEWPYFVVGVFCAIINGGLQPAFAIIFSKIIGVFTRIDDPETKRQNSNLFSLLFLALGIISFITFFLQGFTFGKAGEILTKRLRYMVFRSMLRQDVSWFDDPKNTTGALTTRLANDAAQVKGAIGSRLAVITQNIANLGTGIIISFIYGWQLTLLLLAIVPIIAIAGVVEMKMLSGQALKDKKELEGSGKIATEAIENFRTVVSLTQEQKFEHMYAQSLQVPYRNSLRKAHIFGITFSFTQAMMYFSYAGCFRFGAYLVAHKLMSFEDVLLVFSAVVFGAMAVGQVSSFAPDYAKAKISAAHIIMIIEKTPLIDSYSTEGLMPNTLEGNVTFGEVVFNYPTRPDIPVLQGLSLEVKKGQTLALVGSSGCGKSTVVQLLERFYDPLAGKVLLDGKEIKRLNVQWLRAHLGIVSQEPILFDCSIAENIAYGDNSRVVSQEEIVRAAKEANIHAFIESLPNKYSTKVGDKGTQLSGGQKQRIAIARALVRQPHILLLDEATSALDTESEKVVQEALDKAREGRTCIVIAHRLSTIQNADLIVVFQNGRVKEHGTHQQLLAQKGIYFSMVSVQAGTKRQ
UniProt Q92887: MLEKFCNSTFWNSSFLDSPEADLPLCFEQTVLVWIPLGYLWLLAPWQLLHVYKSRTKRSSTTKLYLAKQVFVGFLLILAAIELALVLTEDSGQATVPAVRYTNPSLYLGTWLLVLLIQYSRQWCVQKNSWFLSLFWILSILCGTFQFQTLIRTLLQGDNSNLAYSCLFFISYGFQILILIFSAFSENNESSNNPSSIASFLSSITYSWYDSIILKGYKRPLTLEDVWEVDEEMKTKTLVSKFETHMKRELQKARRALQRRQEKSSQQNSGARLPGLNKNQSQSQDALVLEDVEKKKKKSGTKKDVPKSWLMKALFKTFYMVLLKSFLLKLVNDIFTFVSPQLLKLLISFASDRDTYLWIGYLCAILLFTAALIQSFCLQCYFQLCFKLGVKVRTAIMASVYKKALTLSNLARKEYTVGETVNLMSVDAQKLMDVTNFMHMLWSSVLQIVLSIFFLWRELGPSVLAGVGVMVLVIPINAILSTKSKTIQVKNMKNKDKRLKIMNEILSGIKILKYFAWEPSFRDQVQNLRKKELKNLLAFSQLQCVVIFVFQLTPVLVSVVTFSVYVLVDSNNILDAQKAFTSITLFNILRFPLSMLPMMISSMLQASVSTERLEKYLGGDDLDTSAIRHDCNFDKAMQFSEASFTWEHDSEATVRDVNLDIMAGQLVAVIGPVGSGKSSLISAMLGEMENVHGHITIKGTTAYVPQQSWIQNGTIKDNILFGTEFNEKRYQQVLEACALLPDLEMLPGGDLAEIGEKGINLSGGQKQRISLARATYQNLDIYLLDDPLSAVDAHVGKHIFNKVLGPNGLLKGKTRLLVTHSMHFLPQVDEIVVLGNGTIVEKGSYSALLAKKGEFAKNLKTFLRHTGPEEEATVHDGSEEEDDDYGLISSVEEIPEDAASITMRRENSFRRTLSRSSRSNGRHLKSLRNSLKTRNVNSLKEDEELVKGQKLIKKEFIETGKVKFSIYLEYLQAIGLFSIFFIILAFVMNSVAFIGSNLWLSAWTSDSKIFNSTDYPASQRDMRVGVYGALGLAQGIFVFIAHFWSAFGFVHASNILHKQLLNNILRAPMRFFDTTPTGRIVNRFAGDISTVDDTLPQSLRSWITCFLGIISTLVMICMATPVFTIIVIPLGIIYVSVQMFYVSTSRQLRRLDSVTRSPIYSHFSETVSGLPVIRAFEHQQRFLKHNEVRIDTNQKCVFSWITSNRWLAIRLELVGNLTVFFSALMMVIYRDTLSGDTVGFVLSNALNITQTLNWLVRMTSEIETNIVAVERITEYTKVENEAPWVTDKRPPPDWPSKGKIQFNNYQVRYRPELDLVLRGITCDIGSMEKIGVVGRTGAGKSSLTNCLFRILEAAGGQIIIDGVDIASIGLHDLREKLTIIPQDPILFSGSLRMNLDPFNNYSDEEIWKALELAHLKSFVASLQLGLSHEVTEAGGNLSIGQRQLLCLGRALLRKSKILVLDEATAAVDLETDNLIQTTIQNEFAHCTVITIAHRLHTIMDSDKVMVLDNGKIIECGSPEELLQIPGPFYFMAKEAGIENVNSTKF

The structures appear in SMILES notation.

Broadly, the Papp A→B is how fast a substance crosses the layer from the apical side. For orientation: Papp B→A means the apparent permeability from the basolateral to the apical side of a cell layer. As to `O=C(O)c1cn(C2CC2)c2cc(N3CCNCC3)c(F)cc2c1=O` [ciprofloxacin], the apical-to-basolateral permeability (Papp A→B) at 25 µM in [1] (Papp × 10^−7 A→B, MDCKI 4°C) was 0.17 ×10⁻⁶ cm/s; in [1] (Papp × 10^−7 A→B, MDCKI), 1.06 ×10⁻⁶ cm/s; in series [2] it was 1.8 ×10⁻⁶ cm/s; on MRP1, 1.96 ×10⁻⁶ cm/s; on P-gp (MDR1) [3], 1.28 ×10⁻⁶ cm/s; in the series “in vitro [4]”, 15.4 ×10⁻⁶ cm/s. In addition, the apical-to-basolateral permeability (Papp A→B) at 25 µM in “in vitro [5]” came out at 1.56 ×10⁻⁶ cm/s; at MRP2, 1.13 ×10⁻⁶ cm/s; at P-gp (MDR1) [6], 0.75 ×10⁻⁶ cm/s. Also, the Papp A→B at 100 µM in series [1] (Papp × 10^−7 A→B, MDCKI, 100 µM ciprofloxacin) was determined as 0.92 ×10⁻⁶ cm/s. In addition, the Papp B→A at 25 µM in series [1] (Papp × 10^−7 B→A, MDCKI 4°C) came to 0.21 ×10⁻⁶ cm/s; in [1] (Papp × 10^−7 B→A, MDCKI), 0.45 ×10⁻⁶ cm/s; in [2] it was 2.3 ×10⁻⁶ cm/s; at MRP1, 1.75 ×10⁻⁶ cm/s; on P-gp (MDR1) [3], 2.26 ×10⁻⁶ cm/s; in “in vitro [4]”, 12.8 ×10⁻⁶ cm/s. The results for the Papp B→A at 25 µM in “in vitro [5]”, on MRP2 and at P-gp (MDR1) [6] were 1.76 ×10⁻⁶ cm/s, 1.5 ×10⁻⁶ cm/s and 0.68 ×10⁻⁶ cm/s, respectively. Also, the Papp B→A at 100 µM in [1] (Papp × 10^−7 B→A, MDCKI, 100 µM ciprofloxacin) is 0.38 ×10⁻⁶ cm/s. Further, the “part of elimination due to biliary excretion” value in series [7] is on record as under 1%. The “inhibition of the transport of rhodamine-123” value at P-gp (L-MDR1 cells) was “significantly inhibit”. Besides, the “interaction with OAT3” value with OAT3 is recorded as “substrate of OAT3”.

Values taken from publication PMC3084506 (Archives of Drug Information, 2011).
